Reference: the supplement of paper PMC11006884
The targets with a hit were mostly taken out for another list; the other results follow. The data scatter; read single values as rough. Only a part is listed here, and it is no random draw.

Chains of the proteins cited; added tags and fusions are not shown. Lines headed by an entry give the natural chain unless they say otherwise; changes in a name come on top.
UniProt Q8TEX9: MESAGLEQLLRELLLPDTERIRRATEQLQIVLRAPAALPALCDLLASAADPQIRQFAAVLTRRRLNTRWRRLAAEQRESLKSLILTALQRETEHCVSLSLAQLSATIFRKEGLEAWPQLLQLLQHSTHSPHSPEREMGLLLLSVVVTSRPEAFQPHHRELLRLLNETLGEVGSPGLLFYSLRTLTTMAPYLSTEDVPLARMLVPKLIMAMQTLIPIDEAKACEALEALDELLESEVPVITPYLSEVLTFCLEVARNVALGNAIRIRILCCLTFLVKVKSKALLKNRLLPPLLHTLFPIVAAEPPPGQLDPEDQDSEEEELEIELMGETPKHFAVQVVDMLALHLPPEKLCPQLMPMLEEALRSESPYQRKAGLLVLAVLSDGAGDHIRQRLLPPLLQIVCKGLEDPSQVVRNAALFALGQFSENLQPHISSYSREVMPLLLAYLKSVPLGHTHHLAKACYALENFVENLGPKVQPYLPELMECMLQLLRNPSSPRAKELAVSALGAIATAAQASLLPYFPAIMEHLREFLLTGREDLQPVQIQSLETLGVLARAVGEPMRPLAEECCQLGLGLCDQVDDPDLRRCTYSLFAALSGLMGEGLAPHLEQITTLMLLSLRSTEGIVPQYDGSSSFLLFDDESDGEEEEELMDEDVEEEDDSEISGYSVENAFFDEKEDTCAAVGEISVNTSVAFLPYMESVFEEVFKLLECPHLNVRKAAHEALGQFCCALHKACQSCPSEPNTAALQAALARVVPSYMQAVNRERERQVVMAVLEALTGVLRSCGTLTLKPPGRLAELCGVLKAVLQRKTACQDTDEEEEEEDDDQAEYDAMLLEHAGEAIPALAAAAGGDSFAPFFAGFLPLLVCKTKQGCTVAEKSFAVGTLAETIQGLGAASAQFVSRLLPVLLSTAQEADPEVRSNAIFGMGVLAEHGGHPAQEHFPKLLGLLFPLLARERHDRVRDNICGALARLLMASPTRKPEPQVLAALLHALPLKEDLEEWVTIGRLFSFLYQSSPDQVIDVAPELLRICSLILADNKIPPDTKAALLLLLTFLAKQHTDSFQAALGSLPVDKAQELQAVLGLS
UniProt Q8NF37: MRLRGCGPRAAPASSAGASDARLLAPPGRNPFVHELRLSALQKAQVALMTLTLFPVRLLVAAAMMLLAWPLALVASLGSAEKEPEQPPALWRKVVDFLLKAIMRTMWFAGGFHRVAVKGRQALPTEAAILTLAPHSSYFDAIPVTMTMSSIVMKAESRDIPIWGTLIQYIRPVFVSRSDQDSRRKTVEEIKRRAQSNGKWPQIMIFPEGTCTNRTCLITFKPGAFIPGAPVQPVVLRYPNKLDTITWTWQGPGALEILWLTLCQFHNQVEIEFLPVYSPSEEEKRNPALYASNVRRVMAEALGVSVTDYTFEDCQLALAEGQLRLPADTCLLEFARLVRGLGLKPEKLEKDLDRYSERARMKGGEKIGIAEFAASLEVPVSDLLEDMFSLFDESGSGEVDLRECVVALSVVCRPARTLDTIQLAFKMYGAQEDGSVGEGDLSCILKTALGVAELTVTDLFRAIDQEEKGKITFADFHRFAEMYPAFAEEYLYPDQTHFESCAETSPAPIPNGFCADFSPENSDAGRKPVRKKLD
UniProt Q8TF72: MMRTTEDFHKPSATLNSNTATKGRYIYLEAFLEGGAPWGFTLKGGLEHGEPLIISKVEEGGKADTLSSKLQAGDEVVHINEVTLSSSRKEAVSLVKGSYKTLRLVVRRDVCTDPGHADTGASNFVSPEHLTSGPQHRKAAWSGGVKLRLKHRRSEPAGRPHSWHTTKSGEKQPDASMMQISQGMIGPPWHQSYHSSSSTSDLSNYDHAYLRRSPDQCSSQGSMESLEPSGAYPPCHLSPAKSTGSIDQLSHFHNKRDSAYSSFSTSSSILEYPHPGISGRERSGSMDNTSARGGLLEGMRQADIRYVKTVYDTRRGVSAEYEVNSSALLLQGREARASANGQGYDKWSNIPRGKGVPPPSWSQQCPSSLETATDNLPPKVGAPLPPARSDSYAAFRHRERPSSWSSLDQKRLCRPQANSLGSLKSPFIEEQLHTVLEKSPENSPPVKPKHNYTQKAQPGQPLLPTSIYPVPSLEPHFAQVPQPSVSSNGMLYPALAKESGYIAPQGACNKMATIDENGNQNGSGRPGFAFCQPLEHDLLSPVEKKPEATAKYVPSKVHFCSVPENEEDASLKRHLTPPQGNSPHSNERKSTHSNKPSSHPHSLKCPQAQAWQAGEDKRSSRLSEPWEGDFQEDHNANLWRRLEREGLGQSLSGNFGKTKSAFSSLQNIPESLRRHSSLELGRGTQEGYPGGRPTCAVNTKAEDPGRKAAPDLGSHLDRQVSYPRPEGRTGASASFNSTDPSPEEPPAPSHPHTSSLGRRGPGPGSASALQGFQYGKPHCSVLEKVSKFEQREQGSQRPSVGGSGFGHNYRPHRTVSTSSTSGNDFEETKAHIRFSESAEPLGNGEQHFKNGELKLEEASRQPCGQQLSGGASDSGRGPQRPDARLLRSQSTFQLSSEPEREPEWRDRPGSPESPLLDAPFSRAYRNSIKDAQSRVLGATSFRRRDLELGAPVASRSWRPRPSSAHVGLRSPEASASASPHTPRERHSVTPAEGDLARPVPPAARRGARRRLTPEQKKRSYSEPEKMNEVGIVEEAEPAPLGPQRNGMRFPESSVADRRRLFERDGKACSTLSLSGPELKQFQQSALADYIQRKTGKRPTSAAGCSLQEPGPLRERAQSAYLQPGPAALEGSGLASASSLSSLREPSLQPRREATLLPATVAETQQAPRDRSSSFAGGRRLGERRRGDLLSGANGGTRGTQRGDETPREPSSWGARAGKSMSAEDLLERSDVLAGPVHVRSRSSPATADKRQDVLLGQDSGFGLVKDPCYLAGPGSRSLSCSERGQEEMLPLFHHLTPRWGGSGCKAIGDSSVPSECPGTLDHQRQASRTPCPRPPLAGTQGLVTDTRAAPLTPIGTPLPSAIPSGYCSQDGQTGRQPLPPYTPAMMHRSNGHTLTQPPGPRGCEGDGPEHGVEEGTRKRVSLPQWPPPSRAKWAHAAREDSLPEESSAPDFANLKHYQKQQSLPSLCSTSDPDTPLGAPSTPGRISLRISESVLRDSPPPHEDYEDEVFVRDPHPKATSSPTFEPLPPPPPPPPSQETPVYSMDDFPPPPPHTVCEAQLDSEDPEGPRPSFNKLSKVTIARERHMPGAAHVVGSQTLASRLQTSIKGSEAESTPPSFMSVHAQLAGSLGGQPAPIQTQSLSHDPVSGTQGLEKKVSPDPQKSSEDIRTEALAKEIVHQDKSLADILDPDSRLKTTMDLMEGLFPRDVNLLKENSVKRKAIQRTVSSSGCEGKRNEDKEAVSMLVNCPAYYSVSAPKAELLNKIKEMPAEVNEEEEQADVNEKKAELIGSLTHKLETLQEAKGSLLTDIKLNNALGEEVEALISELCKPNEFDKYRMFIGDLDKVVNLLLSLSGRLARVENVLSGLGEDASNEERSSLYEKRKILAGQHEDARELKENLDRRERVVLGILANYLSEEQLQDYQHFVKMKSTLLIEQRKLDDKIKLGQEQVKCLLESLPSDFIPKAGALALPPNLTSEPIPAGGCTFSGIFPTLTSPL
UniProt Q8WUD1: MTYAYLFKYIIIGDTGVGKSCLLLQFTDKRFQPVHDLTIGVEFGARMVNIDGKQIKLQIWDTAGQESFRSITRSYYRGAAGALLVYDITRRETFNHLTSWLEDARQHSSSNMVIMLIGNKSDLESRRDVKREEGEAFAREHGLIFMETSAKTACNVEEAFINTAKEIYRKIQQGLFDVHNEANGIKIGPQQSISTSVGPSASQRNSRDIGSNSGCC
UniProt Q8NEM7: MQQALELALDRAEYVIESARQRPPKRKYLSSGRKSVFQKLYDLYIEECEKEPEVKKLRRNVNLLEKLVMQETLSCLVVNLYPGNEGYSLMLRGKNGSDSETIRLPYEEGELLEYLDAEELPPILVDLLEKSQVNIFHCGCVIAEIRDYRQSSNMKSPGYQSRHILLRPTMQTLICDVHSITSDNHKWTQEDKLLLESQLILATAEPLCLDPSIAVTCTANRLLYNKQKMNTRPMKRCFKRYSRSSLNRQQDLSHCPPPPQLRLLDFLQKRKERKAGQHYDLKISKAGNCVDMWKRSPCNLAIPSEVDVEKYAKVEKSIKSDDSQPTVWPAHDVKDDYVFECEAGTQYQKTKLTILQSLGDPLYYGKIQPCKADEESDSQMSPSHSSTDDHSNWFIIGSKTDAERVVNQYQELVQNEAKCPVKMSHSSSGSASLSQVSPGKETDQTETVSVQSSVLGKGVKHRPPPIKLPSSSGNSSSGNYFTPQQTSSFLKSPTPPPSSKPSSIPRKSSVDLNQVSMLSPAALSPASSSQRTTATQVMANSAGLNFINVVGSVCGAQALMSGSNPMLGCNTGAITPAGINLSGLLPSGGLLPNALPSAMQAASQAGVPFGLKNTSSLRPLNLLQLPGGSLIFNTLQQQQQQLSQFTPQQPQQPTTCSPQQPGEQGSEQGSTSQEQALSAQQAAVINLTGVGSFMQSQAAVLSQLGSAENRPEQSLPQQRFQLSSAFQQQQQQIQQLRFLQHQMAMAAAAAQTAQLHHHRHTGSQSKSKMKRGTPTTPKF
UniProt Q8NBU5: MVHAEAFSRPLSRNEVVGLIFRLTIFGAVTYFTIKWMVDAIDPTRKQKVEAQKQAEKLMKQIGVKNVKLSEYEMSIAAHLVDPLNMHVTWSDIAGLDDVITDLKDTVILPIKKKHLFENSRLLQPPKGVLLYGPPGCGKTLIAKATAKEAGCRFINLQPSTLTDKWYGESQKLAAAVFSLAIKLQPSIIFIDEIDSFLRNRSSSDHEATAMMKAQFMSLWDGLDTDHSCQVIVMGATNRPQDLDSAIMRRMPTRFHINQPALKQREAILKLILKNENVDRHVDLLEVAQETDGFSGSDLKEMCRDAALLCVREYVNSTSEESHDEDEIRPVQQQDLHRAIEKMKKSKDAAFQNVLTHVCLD
UniProt Q8WWM7: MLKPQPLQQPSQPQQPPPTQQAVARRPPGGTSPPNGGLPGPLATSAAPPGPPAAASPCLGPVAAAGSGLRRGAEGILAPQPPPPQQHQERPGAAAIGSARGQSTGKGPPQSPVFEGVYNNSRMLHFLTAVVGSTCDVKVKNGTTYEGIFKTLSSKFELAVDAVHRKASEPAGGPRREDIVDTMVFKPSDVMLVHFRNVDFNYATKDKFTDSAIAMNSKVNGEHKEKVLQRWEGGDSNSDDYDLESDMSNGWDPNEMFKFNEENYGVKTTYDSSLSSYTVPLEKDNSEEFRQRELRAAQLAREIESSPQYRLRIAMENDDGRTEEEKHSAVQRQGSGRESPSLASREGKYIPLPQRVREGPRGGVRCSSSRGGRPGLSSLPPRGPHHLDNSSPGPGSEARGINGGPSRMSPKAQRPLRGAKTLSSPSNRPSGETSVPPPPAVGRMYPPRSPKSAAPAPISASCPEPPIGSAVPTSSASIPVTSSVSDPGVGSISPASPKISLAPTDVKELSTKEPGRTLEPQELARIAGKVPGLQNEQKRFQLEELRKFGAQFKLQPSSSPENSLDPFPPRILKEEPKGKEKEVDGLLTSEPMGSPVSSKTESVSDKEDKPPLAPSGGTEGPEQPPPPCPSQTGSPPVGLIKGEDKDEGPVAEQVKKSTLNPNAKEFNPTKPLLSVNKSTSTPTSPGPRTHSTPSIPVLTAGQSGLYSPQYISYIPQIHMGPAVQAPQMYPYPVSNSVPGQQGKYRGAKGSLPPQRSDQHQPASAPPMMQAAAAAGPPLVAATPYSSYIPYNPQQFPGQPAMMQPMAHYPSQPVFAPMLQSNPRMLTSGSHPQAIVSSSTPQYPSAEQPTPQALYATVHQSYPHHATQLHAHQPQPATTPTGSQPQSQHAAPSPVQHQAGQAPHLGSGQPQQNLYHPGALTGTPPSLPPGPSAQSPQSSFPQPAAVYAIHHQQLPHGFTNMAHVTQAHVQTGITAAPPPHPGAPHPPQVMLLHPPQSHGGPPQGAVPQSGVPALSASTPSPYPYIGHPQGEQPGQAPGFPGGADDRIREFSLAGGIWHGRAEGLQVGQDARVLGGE
UniProt Q8N5A5: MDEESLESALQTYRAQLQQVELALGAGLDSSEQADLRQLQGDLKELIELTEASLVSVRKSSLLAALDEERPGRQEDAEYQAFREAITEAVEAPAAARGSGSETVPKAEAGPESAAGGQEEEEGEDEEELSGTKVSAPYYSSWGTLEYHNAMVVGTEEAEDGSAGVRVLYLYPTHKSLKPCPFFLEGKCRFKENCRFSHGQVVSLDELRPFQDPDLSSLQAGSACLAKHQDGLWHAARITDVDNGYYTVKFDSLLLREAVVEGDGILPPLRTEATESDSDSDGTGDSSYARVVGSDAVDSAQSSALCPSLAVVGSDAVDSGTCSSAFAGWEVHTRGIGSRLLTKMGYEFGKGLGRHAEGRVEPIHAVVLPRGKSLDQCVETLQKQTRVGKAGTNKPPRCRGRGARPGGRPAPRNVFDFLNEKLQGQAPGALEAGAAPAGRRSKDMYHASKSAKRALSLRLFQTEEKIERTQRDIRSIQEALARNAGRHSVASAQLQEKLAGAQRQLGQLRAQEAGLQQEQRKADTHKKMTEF

Compound: COC(=O)/C=C/c1ccccc1 [methyl cinnamate]
Test: log2 ratio of iodoacetamide-alkyne labeling of the cysteine site, DMSO over compound (competition); higher = stronger covalent engagement of the cysteine by the compound, active = 1 or more
Conditions: 500 µM; treatment time 1 h; system: HEK293T cell lysate
How it was run: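 HEK293T lysate (2 mg/mL) was incubated with electrophile (500 µM) or vehicle for 1 h at ambient temperature and then with iodoacetamide alkyne for 1 h. Labelled proteins were clicked to sCIP-TMT reagents, pooled, digested, enriched on streptavidin and measured by Orbitrap Eclipse LC-MS/MS with FAIMS, with FragPipe quantification. The per-cysteine log2 competition ratio is mean control-channel reporter intensity over mean compound-channel reporter intensity. Across three replicates with duplicate channels, cysteines quantified in only one replicate were excluded.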

log2 ratio of iodoacetamide-alkyne labeling, inactive:
DDX54 C73 (UniProt Q8TDD1) 0.3
IPO4 C350 (UniProt Q8TEX9) 0.0308
UniProt Q8WUQ7_C699 0.0827
LPCAT1 C330 (UniProt Q8NF37) 0.285
LRRC47 C164 (UniProt Q8N1G4) -0.105
PHF10 C383 (UniProt Q8WUB8) 0.16
XRN1 C132 (UniProt Q8IZH2) 0.157
ZNF687 C1086 (UniProt Q8N1G0) 0.0152
LSM14A C85 (UniProt Q8ND56) -0.0554
SHROOM3 C1951 (UniProt Q8TF72) -0.0899
RAB2B C154 (UniProt Q8WUD1) 0.339
SUPT20H C298 (UniProt Q8NEM7) 0.294
UniProt Q8NBU5_C303 0.0857
DDHD1 C83 (UniProt Q8NEL9) -0.0269
UBA3 C28 (UniProt Q8TBC4) 0.311
PIAS4 C164 (UniProt Q8N2W9) 0.114
UniProt Q8N1G2_C9 0.611
SYNE2 C5212 (UniProt Q8WXH0) 0.115
ASCC3 C742 (UniProt Q8N3C0) 0.35
SETD7 C200 (UniProt Q8WTS6) 0.209
ARL6IP6 C48 (UniProt Q8N6S5) 0.265
IPO4 C735 (UniProt Q8TEX9) 0.0259
ATXN2L C58 (UniProt Q8WWM7) 0.0836
IPO4 C459 (UniProt Q8TEX9) 0.109
UniProt Q8WYL5_C626 0.271
INTS1 C1534 (UniProt Q8N201) 0.121
NHLRC2 C161 (UniProt Q8NBF2) -0.433
VPS8 C1371 (UniProt Q8N3P4) 0.207
ZGPAT C377 (UniProt Q8N5A5) 0.244
KLHL36 C263 (UniProt Q8N4N3) -0.0277
GEMIN5 C806 (UniProt Q8TEQ6) 0.293
UniProt Q8N1G2_C794 0.347
UniProt Q8N726_C123 0.206
SLC20A1 C426 (UniProt Q8WUM9) 0.208
IPO4 C42 (UniProt Q8TEX9) -0.00685
ARFGAP1 C96 (UniProt Q8N6T3) 0.217
UniProt Q8NB37_C94 0.119

Reprinted from the results shown (two entries):
log2 ratio of iodoacetamide-alkyne labeling, inactive:
UniProt Q8WYL5_C626 0.271
INTS1 C1534 (UniProt Q8N201) 0.121
